From article doi:10.1101/2024.05.13.593894 (bioRxiv, 2024)
Results are given in words; binding and its absence hold for the method and conditions named. Some binding calls cover weakened binding; strength is not graded here.

The chains behind the UniProt entries cited, without tags or fusion partners. Residues count along the entry.
UniProt P19793, residues 98-462: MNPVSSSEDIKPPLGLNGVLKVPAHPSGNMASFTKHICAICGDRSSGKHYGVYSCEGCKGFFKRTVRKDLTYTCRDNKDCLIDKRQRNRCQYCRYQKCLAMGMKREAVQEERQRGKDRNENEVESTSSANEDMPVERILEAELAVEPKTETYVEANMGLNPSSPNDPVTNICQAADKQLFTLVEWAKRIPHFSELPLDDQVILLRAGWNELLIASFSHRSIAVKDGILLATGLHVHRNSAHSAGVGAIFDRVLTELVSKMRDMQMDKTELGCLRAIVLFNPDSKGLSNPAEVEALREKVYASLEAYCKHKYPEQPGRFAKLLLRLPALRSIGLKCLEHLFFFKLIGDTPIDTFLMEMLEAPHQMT

Target: RXRα_(98-462) (human) (UniProt P19793)
Test: cross-linking

B1: FXR_(120-486) (domain or fragment, UniProt Q96RI1 120-486)
chain: KKPRMGASAGRIKGDELCVVCGDRASGYHYNALTCEGCKGFFRRSITKNAVYKCKNGGNCVMDMYMRRKCQECRLRKCKEMGMLAECMYTGLLTEIQCKSKRLRKNVKQHADQTVNEDSEGRDLRQVTSTTKSCREKTELTPDQQTLLHFIMDSYNKQRMPQEITNKILKEEFSAEENFLILTEMATNHVQVLVEFTKKLPGFQTLDHEDQIALLKGSAVEAMFLRSAEIFNKKLPSGHSDLLEERIRNSGISDEYITPMFSFYKSIGELKMTQEEYALLTAIVILSPDRQYIKDREAVEKLQEPLLDVLQKLCKIHQPENPQHFACLLGRLTELRTFNHHHAEMLMSWRVNDHKFTPLLCEIWDVQ
In the case of B1, the binding is reported as “binds”.
